According to patent US20260014129A1, “MITOCHONDRIAL PYRUVATE METABOLISM INHIBITORS FOR TREATING CHRONIC MYELOID LEUKEMIA” (The University Court of the University of Glasgow, priority 2022, published 2026):

Legend:
CML CD34+ cells [1] = test: RNA-seq differential gene expression and GSEA of imatinib-treated CML CD34+ cells; type: cell-based, human; conditions: imatinib 2 μM, 48 hours, n=4 patient samples
Experimental: RNA was extracted from 200,000 CML CD34+ cells using an RNA easy mini kit (Qiagen) according to the manufacturer's instructions.
Libraries were prepared using the Illumina TruSeq Stranded mRNA LT Kit (Illumina) and run on the Illumina Next Seq 500 using the High Output 75 cycles kit (2×36 cycles, paired end reads, single index; Illumina). FastQ files were generated using Illumina's bcl2fastq (v. 2.20.0.422).
QC, alignment, and parsing of files into count matrices was performed in command line, with subsequent differential gene expression (DGE) analysis performed in R (1.2.1335). Adapter trimming was performed using Scythe (version 0.981), and Sickle (version 0.940), was used to trim bases with quality scores of less than 20. Prior to and after this pre-processing fastqc (version 0.11.2) was run to ascertain sequence quality, alongside the efficacy of the pre-processing steps. Trimmed reads were indexed and aligned using Hisat2 (version 2.1.0). Hisat2 indexes (GRCh38 genome_tran) were obtained from the John Hopkins Center for Computational Biology, 2020. Samtools (version 0.1.19044428cd) view was used to convert the resulting .sam to .bam files, whilst samtools sort was used to sort the .bam files. Assembly was achieved through the use of stringtie (John Hopkins Center for Computational Biology, 2020), with output .gtf files converted to count matrices using the python script prepDE.py (stringtie version 1.3.3b.Linux_x86_64). Reads were assembled using an annotated reference human genome (GRCh38.p13), obtained from GENCODE (GENECODE, 2020). DESeq2 (version 1.26.0) was used to generate results sets from the gene and transcript count matrices. G genes with read counts too low to allow for the calculation of p and adjusted p-values (padj: Benjamini-Hochberg) were removed from the data sets leaving gene and transcript counts of sizes 16,069 and 45,218 respectively.
GSEA (version 4.1) was conducted on pre-ranked lists (ranked by pi score calculated by multiplying LOG fold change by −LOG (corrected p-value)).

CML CD34+ cells [2] = conditions: imatinib for 7 days, dataset E-MTAB-2594; cited from earlier work

Q: With `Cc1ccc(NC(=O)c2ccc(CN3CCN(C)CC3)cc2)cc1Nc1nccc(-c2cccnc2)n1` [imatinib] as the molecule, how does the “downregulated genes (number)” value (CML CD34+ cells [1]) read?
A: The value was 576 genes.

Q: And the “downregulated genes (share of expressed genes)” value (CML CD34+ cells [1])?
A: The value was 3.6%.

Q: What about the “upregulated genes (number)” value (CML CD34+ cells [1]) of the same molecule?
A: Its value is 452 genes.

Q: What about the “upregulated genes (share of expressed genes)” value (CML CD34+ cells [1]) of the same molecule?
A: Its value is 2.8%.

Q: And the “significantly different expressed genes (number)” value (CML CD34+ cells [2])?
A: Its value is 10,762.

Q: What about the “significantly different expressed genes (share)” value (CML CD34+ cells [2]) of the same molecule?
A: The value was 56%.
